Experimental findings from paper PMC5040591 are described below.

The chains behind the UniProt entries cited, without tags or fusion partners.
UniProt Q6EVK6: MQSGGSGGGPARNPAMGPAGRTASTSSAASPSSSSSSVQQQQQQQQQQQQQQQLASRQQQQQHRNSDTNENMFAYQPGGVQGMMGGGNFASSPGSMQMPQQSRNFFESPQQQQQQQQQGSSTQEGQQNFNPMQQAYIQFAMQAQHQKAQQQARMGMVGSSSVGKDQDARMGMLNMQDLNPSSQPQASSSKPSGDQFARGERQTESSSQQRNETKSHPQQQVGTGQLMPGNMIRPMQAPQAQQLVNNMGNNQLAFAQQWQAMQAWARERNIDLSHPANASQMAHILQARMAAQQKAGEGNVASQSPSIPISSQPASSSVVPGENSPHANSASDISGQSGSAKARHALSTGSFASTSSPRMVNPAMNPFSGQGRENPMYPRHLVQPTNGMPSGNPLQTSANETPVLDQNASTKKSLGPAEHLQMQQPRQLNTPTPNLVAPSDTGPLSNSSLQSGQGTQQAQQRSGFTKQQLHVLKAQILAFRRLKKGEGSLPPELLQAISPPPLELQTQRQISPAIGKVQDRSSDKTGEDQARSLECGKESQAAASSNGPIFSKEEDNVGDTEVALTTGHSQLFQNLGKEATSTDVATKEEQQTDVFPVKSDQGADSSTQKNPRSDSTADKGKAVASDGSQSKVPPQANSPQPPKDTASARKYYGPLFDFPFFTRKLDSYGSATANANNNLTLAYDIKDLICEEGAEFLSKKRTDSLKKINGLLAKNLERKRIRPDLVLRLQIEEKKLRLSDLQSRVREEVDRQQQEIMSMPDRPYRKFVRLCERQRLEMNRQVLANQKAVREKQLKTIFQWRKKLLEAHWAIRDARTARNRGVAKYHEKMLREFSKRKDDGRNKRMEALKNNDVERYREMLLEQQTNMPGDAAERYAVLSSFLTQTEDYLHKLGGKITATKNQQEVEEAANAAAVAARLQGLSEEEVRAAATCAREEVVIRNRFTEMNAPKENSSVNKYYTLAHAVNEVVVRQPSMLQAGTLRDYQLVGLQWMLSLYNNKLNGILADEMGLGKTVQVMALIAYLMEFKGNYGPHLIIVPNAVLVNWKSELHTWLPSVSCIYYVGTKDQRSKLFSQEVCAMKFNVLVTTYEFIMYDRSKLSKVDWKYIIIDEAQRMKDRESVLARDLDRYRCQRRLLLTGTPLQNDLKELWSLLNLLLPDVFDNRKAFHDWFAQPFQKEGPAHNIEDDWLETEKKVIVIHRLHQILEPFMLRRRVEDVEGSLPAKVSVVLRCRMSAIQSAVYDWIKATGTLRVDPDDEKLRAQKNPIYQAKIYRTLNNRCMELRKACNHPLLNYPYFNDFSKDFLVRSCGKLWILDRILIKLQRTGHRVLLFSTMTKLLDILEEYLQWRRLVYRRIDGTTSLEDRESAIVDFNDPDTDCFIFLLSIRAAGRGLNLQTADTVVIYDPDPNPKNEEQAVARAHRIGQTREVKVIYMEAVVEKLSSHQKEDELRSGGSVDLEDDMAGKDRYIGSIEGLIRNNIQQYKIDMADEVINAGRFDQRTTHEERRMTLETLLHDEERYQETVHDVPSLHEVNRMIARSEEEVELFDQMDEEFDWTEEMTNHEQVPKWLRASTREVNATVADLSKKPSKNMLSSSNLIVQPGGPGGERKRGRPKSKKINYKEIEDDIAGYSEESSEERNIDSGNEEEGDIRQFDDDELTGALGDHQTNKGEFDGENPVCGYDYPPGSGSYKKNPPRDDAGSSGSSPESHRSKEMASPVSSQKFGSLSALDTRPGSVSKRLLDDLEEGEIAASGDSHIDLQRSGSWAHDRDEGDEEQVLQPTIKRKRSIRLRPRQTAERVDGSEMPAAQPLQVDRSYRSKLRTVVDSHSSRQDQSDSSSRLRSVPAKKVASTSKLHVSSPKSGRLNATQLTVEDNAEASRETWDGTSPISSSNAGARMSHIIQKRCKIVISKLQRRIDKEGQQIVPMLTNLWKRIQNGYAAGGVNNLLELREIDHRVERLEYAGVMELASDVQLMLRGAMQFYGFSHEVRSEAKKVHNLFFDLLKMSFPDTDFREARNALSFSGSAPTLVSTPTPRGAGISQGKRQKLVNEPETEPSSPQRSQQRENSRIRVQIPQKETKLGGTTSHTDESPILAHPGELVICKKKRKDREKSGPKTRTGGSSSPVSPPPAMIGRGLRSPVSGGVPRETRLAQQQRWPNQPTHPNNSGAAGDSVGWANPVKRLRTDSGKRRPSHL
UniProt Q8RWY3: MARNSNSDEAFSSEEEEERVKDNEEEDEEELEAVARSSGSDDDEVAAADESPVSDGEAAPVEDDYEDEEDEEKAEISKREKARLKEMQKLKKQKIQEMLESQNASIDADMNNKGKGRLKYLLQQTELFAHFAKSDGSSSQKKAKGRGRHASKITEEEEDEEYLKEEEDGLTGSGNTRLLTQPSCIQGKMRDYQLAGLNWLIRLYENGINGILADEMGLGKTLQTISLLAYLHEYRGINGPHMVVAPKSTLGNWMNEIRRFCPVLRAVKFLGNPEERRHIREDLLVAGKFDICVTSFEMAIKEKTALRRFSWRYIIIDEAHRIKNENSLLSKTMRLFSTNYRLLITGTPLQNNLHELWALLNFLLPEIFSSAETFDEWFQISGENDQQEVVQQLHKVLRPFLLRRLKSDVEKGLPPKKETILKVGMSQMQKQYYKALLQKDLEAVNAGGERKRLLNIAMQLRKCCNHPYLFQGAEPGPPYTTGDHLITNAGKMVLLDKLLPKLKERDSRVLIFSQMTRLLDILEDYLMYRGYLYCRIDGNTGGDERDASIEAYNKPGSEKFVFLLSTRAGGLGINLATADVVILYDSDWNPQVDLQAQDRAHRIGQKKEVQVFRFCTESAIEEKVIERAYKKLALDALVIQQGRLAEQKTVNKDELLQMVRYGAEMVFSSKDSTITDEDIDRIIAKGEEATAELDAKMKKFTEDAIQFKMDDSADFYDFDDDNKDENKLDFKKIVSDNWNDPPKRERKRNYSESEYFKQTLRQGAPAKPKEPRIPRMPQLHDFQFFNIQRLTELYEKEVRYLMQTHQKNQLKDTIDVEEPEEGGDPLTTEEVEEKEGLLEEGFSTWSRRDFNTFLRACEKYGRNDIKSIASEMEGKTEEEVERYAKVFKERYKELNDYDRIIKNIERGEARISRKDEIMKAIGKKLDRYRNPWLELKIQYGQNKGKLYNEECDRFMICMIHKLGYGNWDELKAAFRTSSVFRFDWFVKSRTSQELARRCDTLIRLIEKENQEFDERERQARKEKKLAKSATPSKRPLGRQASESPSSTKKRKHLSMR
UniProt F4JY24: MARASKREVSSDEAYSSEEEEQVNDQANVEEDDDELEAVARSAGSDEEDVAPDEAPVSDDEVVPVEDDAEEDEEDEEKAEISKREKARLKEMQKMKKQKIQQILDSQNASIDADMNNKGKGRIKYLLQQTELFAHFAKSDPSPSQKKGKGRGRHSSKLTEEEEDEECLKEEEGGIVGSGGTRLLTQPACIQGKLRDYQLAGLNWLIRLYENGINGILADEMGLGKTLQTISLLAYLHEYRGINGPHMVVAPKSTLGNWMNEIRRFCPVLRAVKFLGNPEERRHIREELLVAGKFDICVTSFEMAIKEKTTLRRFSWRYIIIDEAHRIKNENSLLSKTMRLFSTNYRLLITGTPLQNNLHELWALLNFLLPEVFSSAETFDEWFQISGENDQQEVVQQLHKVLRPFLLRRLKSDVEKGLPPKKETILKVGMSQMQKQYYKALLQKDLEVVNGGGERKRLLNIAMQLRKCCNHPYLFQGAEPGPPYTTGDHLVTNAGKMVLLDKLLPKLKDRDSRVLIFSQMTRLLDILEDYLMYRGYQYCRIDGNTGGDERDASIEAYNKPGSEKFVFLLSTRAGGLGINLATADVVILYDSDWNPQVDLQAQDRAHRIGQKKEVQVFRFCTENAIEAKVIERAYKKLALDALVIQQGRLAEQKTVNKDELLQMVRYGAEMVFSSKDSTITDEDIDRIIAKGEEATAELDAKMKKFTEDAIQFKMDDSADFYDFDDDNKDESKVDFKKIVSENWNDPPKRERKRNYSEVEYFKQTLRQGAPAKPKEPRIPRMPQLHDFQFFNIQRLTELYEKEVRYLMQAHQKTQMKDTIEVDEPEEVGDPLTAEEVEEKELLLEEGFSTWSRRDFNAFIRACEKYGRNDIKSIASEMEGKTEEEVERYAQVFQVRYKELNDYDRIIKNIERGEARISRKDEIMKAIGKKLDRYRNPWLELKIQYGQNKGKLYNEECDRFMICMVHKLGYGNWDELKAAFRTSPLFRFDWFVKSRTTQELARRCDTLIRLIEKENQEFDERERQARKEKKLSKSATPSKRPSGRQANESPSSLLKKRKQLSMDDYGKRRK

The chains are these.
T1: FGT1-YFP fusion protein (35S::FGT1-YFP) (A. thaliana) (UniProt F4IF36)
T1 sequence: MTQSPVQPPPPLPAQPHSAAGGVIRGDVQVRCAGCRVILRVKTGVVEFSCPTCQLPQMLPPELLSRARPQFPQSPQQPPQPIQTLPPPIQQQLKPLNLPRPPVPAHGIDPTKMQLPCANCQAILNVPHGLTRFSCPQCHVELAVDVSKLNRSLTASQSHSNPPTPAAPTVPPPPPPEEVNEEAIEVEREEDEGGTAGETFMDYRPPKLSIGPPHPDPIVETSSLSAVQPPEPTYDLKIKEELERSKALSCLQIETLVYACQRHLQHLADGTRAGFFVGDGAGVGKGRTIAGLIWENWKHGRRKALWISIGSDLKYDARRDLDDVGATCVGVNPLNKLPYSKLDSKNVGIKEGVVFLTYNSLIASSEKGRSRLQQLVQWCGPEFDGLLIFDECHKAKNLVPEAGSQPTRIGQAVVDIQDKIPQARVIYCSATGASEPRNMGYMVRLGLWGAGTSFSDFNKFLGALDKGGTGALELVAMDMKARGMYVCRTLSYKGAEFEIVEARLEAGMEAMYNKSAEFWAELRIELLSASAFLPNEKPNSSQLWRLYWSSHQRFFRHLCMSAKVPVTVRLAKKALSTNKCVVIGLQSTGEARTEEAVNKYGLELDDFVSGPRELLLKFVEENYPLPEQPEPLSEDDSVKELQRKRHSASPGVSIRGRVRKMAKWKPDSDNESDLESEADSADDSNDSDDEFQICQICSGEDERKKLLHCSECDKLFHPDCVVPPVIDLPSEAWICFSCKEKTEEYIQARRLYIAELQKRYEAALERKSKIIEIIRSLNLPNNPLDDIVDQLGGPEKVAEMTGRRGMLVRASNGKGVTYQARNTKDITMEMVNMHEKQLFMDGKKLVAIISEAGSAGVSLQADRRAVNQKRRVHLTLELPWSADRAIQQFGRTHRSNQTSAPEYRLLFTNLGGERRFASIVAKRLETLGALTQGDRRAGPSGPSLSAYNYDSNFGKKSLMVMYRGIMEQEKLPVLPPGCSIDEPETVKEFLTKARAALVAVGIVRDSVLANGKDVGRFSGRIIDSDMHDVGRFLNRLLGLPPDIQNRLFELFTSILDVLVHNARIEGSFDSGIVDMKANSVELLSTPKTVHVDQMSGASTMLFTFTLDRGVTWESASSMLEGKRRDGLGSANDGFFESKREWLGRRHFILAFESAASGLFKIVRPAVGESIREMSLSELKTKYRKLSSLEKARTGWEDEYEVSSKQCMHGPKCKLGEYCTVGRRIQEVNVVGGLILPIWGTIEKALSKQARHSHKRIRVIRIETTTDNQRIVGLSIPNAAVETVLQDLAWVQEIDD

B1: SWI3d (protein, UniProt Q8VY05 1-985)
chain: MEEKRRDSAGTLAFAGSSGDSPASEPMPAPRRRGGGLKRKANALGGSNFFSSAPSKRMLTREKAMLASFSPVHNGPLTRARQAPSIMPSAADGVKSEVLNVAVGADGEKPKEEEERNKAIREWEALEAKIEADFEAIRSRDSNVHVVPNHCGWFSWEKIHPLEERSLPSFFNGKLEGRTSEVYREIRNWIMGKFHSNPNIQIELKDLTELEVGDSEAKQEVMEFLDYWGLINFHPFPPTDTGSTASDHDDLGDKESLLNSLYRFQVDEACPPLVHKPRFTAQATPSGLFPDPMAADELLKQEGPAVEYHCNSCSADCSRKRYHCPKQADFDLCTECFNSGKFSSDMSSSDFILMEPAEAPGVGSGKWTDQETLLLLEALEIFKENWNEIAEHVATKTKAQCMLHFLQMPIEDAFLDQIDYKDPISKDTTDLAVSKDDNSVLKDAPEEAENKKRVDEDETMKEVPEPEDGNEEKVSQESSKPGDASEETNEMEAEQKTPKLETAIEERCKDEADENIALKALTEAFEDVGHSSTPEASFSFADLGNPVMGLAAFLVRLAGSDVATASARASIKSLHSNSGMLLATRHCYILEDPPDNKKDPTKSKSCSADAEGNDDNSHKDDQPEEKSKKAEEVSLNSDDREMPDTDTGKETQDSVSEEKQPGSRTENSTTKLDAVQEKRSSKPVTTDNSEKPVDIICPSQDKCSGKELQEPLKDGNKLSSENKDASQSTVSQSAADASQPEASRDVEMKDTLQSEKDPEDVVKTVGEKVQLAKEEGANDVLSTPDKSVSQQPIGSASAPENGTAGGNPNIEGKKEKDICEGTKDKYNIEKLKRAAISAISAAAVKAKNLAKQEEDQIRQLSGSLIEKQLHKLEAKLSIFNEAESLTMRVREQLERSRQRLYHERAQIIAARLGVPPSMSSKASLPTNRIAANFANVAQRPPMGMAFPRPPMPRPPGFPVPGSFVAATTMTGSSDPSPGSDNVSSV

Results are given in words; binding and its absence hold for the method and conditions named. Binding seen in cells or lysates may run through a third protein. These calls come from enrichment with a bait or labelling near it, and not all partners need be listed. Sequences can lack the tags named with a protein.

For this test, the target named is T1, FGT1-YFP fusion protein (35S::FGT1-YFP) (A. thaliana). Put plainly: affinity purification with mass spectrometry; native FGT1-YFP complexes from nuclear extracts of 35S::FGT1-YFP seedlings 28 h after ACC or NHS, α-GFP paramagnetic beads 1.5 h at 4°C, elution in 8 M urea, trypsin digest, nHPLC-MS/MS; controls 35S::YFP and Col-0.
For the molecule “BRAHMA (BRM) (from UniProt Q6EVK6 1-2193)”, the binding entry is reported as “binds”.
With CHR11 (from UniProt Q8RWY3 1-1056), the binding entry is reported as “binds”.
The value for CHR17 (from UniProt F4JY24 1-1069) was “binds”; that for “SWP73b (A. thaliana (endogenous in seedlings))” was “binds”; that for B1 was “binds”.
